Some entries share one result that the patent states for a list of compounds.
Test system: Mycobacterium tuberculosis
Settings: intracellular M. tuberculosis, cell culture

## CC(=O)N[C@@H](CS)C(=O)O [NAC, N-acetyl cysteine]
  growth of the organisms limited to a level below: below 1000 CFU/ml

From patent publication US20150030668A1 (priority 2012, published 2015)
